{
  "source": "patent US7511027B2",
  "about": "“Method of treating hepatitis delta virus infection” (Georgetown University, priority 2000, dated 2009)",
  "origin": "cited, not measured here",
  "key": {"HDV": {"tested_on": "HDV", "details": "patients chronically infected with both HBV and HDV, cited from earlier work"}, "viral surface antigen": {"tested_on": "viral surface antigen", "details": "HBV and WHV; cited from earlier work"}},
  "note": "At least one structure is not confirmed: it was looked up by name or label, or the drawing left a doubt.",
  "data": [
    {"smiles": "Nc1ccn([C@@H]2CS[C@H](CO)O2)c(=O)n1", "note": "[lamivudine, β-L-2′,3′-dideoxy-3′-thiacytidine]", "values": [
      {"measurement": "disease activity", "setting": "HDV; HBV levels suppressed", "result": "no improvement"},
      {"measurement": "effect on circulating levels of HDV", "setting": "HDV", "result": "little effect"},
      {"measurement": "production of viral surface antigen", "setting": "viral surface antigen", "result": "does not affect"}
    ]}
  ]
}
